Experimental data published in patent US20040151721A1.
These are yes or no findings as the source states them, for the method shown. Some entries that bind do so weakly or less than the wild type.

The chains behind the UniProt entries cited, without tags or fusion partners.
UniProt P41597: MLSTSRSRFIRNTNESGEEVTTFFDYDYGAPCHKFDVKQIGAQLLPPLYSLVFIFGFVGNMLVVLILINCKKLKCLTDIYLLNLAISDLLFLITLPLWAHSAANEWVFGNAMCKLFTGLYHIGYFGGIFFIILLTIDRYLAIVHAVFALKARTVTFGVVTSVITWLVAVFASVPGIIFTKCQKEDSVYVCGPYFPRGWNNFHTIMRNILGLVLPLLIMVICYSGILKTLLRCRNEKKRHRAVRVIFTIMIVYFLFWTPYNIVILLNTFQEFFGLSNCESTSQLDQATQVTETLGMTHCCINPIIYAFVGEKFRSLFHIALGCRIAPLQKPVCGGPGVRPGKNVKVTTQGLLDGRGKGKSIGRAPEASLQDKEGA

Target: human CCR2, endogenous on THP-1 cells / THP-1 cell membranes, fresh PBMC and whole blood cells (human) (UniProt P41597)
Assay: inhibition of 0.1 nM [125I]-MCP-1 binding to whole THP-1 cells (FIG. 25)

- binding: binds
B1: humanized version of mAb 1D9 comprising the 1D9RHAVH heavy chain and the 1D9RKAVK light chain (antibody, V domains shown)
VH: EVQLVESGGGLVKPGGSLRLSCAASGFTFSAYAMNWVRQAPGKGLEWVGRIRTKNNNYATYYADSVKDRFTISRDDSKNTLYLQMNSLKTEDTAVYYCTTFYGNGVWGQGTLVTVSS
VL: DVVMTQSPLSLPVTLGQPASISCKSSQSLLDSDGKTFLNWFQQRPGQSPRRLIYLVSKLDSGVPDRFSGSGSGTDFTLKISRVEAEDVGVYYCWQGTHFPYTFGQGTRLEIK
